The shares of active, inactive and inconclusive entries below differ from those in the screen. For some of these results: Potencies beside an inconclusive call are fits to weak or partial responses and may not hold up. Calls of active or inactive are those of the source. Calls come from the whole dose curve; as a rule, active = well fitted cell-killing curve with a large enough effect; inconclusive = small, poorly fitted or top-dose-only effect, or effect the other way; inactive = no such curve, though single readings can be large or run the other way.
Columns and labels:
[1] = Quantitative High-Throughput drug screen in 47 multiple myeloma cell lines against the NCATS MIPE library collection: LP1_DSMZ cell viability assay (AID 1918982); note: nearly all actives have a fitted effect of over 35% in size; note: potency is the fitted concentration of half-maximal effect
Method in brief: (§1)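 Readout: median RLU from CellTiter-Glo after 5 min at room temperature. Preceding step was 48 h drug treatment of 500 cells/well at 37 °C, 5% CO2, with DMSO-only and media-only control wells.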

[2] = Quantitative High-Throughput drug screen in 47 multiple myeloma cell lines against the NCATS MIPE library collection: KMS28PE_JCRB cell viability assay (AID 1918983); note: nearly all actives have a fitted effect of over 35% in size; note: potency is the fitted concentration of half-maximal effect
Method in brief: as §1

[3] = Quantitative High-Throughput drug screen in 47 multiple myeloma cell lines against the NCATS MIPE library collection: L363_DSMZ cell viability assay (AID 1918984); settings: L363 myeloma viability, CellTiter-Glo ATP luminescence, 48 h; viability (% of control): at 45.8 µM (top of the series); note: nearly all actives have a fitted effect of over 40% in size; note: potency is the fitted concentration of half-maximal effect
Method in brief: as §1

[4] = Quantitative High-Throughput drug screen in 47 multiple myeloma cell lines against the NCATS MIPE library collection: KMS34_JCRB cell viability assay (AID 1918985); note: nearly all actives have a fitted effect of over 40% in size; note: potency is the fitted concentration of half-maximal effect
Method in brief: as §1

[5] = Quantitative High-Throughput drug screen in 47 multiple myeloma cell lines against the NCATS MIPE library collection: OCIMY7_PLB cell viability assay (AID 1918987); settings: OCI-MY7 myeloma viability, CellTiter-Glo ATP, 48 h; viability (% of DMSO): at 45.8 µM (top of the series); note: nearly all actives have a fitted effect of over 65% in size; note: potency is the fitted concentration of half-maximal effect
Method in brief: as §1

[6] = Quantitative High-Throughput drug screen in 47 multiple myeloma cell lines against the NCATS MIPE library collection: OCIMY5_PLB cell viability assay (AID 1918988); note: nearly all actives have a fitted effect of over 65% in size; note: potency is the fitted concentration of half-maximal effect
Method in brief: as §1

[7] = Quantitative High-Throughput drug screen in 47 multiple myeloma cell lines against the NCATS MIPE library collection: OPM1_PLB cell viability assay (AID 1918989); note: nearly all actives have a fitted effect of over 40% in size; note: potency is the fitted concentration of half-maximal effect
Method in brief: as §1

[8] = Quantitative High-Throughput drug screen in 47 multiple myeloma cell lines against the NCATS MIPE library collection: SKMM1_PLB cell viability assay (AID 1919863); settings: SKMM1 myeloma viability, CellTiter-Glo ATP, 48 h; viability: stronger effect = lower value; note: potency is the fitted concentration of half-maximal effect; nearly all actives have a fitted effect of over 35% in size
Method in brief: as §1

[9] = Quantitative High-Throughput drug screen in 47 multiple myeloma cell lines against the NCATS MIPE library collection: U266_ATCC cell viability assay (AID 1919864); settings: U266 myeloma viability, CellTiter-Glo ATP luminescence, 48 h; viability (% of DMSO control): at 45.8 µM (top of the series); note: nearly all actives have a fitted effect of over 35% in size; note: potency is the fitted concentration of half-maximal effect
Method in brief: as §1

[10] = Quantitative High-Throughput drug screen in 47 multiple myeloma cell lines against the NCATS MIPE library collection: XG6_PLB cell viability assay (AID 1919865); settings: XG6 myeloma viability, CellTiter-Glo ATP luminescence, 48 h; viability (% of control): at 45.8 µM (top of the series); note: nearly all actives have a fitted effect of over 40% in size
Method in brief: as §1

[11] = Quantitative High-Throughput drug screen in 47 multiple myeloma cell lines against the NCATS MIPE library collection: VP6_DJ cell viability assay (AID 1919867); settings: ATP luminescence, 48 h; viability (% of DMSO): at 45.8 µM (top of the series); note: nearly all actives have a fitted effect of over 40% in size; note: potency is the fitted concentration of half-maximal effect
Method in brief: as §1

[12] = Quantitative High-Throughput drug screen in 47 multiple myeloma cell lines against the NCATS MIPE library collection: UTMC2_PLB cell viability assay (AID 1919868); settings: CellTiter-Glo ATP luminescence, 48 h; viability (% of DMSO control): at 45.8 µM (top of the series); note: nearly all actives have a fitted effect of over 55% in size; note: potency is the fitted concentration of half-maximal effect
Method in brief: as §1

[13] = Quantitative High-Throughput drug screen in 47 multiple myeloma cell lines against the NCATS MIPE library collection: PE2_PLB cell viability assay (AID 1919869); settings: PE2_PLB myeloma cells viability, ATP luminescence, 48 h; viability (% of control): at 45.8 µM (top of the series); note: nearly all actives have a fitted effect of over 35% in size
Method in brief: as §1

[14] = Quantitative High-Throughput drug screen in 47 multiple myeloma cell lines against the NCATS MIPE library collection: RPMI8226_ATCC cell viability assay (AID 1919871); settings: RPMI8226 myeloma viability, CellTiter-Glo ATP luminescence, 48 h; viability (% of control): at 45.8 µM (top of the series); note: nearly all actives have a fitted effect of over 30% in size; note: potency is the fitted concentration of half-maximal effect
Method in brief: as §1

[15] = Quantitative High-Throughput drug screen in 47 multiple myeloma cell lines against the NCATS MIPE library collection: OPM2_DSMZ cell viability assay (AID 1919872); note: nearly all actives have a fitted effect of over 30% in size
Method in brief: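 Luminescent ATP measurement with CellTiter-Glo gives viability, scaled between DMSO-only wells (100%) and media-only wells (0%). Cells, 500 per well, faced library compounds for 48 hours at 37C.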

[16] = Quantitative High-Throughput drug screen in 47 multiple myeloma cell lines against the NCATS MIPE library collection: KMS28BM_JCRB cell viability assay (AID 1919874); note: nearly all actives have a fitted effect of over 35% in size; note: potency is the fitted concentration of half-maximal effect
Method in brief: as §1

[17] = Quantitative High-Throughput drug screen in 47 multiple myeloma cell lines against the NCATS MIPE library collection: PCM6_Riken cell viability assay (AID 1919870); note: nearly all actives have a fitted effect of over 30% in size; note: potency is the fitted concentration of half-maximal effect
Method in brief: as §1

[18] = Quantitative High-Throughput drug screen in 47 multiple myeloma cell lines against the NCATS MIPE library collection: XG1_PLB cell viability assay (AID 1919866); settings: CellTiter-Glo ATP, 48 h; viability: at 45.8 µM (top of the series); note: nearly all actives have a fitted effect of over 35% in size
Method in brief: as §1

[19] = Quantitative High-Throughput drug screen in 47 multiple myeloma cell lines against the NCATS MIPE library collection: KMS11_JCRBsus cell viability assay (AID 1919873); note: nearly all actives have a fitted effect of over 50% in size; note: potency is the fitted concentration of half-maximal effect
Method in brief: as §1

CN1CCN(C(=O)O[C@H]2c3nccnc3C(=O)N2c2ccc(Cl)cn2)CC1
inactive: Potency [1] | Potency [4] | Potency [5] | Potency [7] | Potency [10] | Potency [11] | Potency [13] | Potency [14] | Potency [15] | Potency [16]
inconclusive: Potency [2] 18700 nM [cytotoxic, single point] | Potency [3] 1.3 nM [cytotoxic, full curve, poor fit] | Potency [6] 4.2 nM [rising, full curve, poor fit] | Potency [8] 7430 nM [cytotoxic, partial curve, poor fit] | viability (% of DMSO control) [9] 97.5% [cytotoxic]
active: viability (% of DMSO control) [12] 181%

COC(=O)[C@@H](N)CCCN=C(N)N[N+](=O)[O-]
inconclusive: Potency [3] 1.2 nM [rising, full curve, poor fit] | Potency [5] 23500 nM [rising, partial curve, poor fit] | Potency [6] 16600 nM [rising, partial curve, poor fit] | Potency [7] 11.8 nM [rising, full curve, poor fit] | Potency [8] 4.7 nM [rising, full curve, poor fit] | Potency [11] 9350 nM [rising, partial curve, poor fit] | Potency [12] 469 nM [rising, full curve, poor fit] | Potency [17] 1.2 nM [rising, full curve, poor fit]
inactive: Potency [1] | Potency [2] | Potency [4] | Potency [10] | Potency [13] | Potency [16]

CCN1C[C@]2(OC(=O)c3ccccc3NC(C)=O)CC[C@H](OC)[C@@]34[C@H]5CC6[C@@H](OC)C[C@](O)(C(C[C@@H]23)[C@@H]14)[C@@]5(O)[C@@H]6OC
inactive: Potency [1] | Potency [2] | Potency [3] | Potency [5] | Potency [6] | Potency [9] | Potency [10] | Potency [18] | Potency [17] | Potency [14]
inconclusive: Potency [4] 37200 nM [rising, single point] | Potency [8] 37200 nM [cytotoxic, single point] | Potency [12] 37200 nM [cytotoxic, partial curve, poor fit]

C=C(C)[C@H]1Cc2c(ccc3c2O[C@@H]2COc4cc(OC)c(OC)cc4[C@@H]2C3=O)O1
active: Potency [1] 264 nM | Potency [3] 148 nM | Potency [7] 7430 nM | Potency [19] 332 nM
inconclusive: Potency [2] 1660 nM [cytotoxic, full curve] | Potency [4] 2960 nM [cytotoxic, full curve, poor fit] | Potency [8] 2090 nM [cytotoxic, full curve] | Potency [17] 332 nM [cytotoxic, full curve] | Potency [14] 2640 nM [cytotoxic, full curve] | Potency [16] 662 nM [cytotoxic, full curve]

C[C@]12CC[C@@H]3c4ccc(OC(=O)N(CCCl)CCCl)cc4CC[C@H]3[C@@H]1CC[C@@H]2OP(=O)(O)O
inconclusive: Potency [2] 11800 nM [cytotoxic, single point] | Potency [5] 1 nM | Potency [6] 37200 nM [cytotoxic, partial curve, poor fit] | Potency [9] 11.8 nM [rising, full curve, poor fit] | Potency [12] 33200 nM [cytotoxic, single point]
inactive: Potency [1] | Potency [3] | Potency [10] | Potency [17] | Potency [19]

O=c1[nH]c2ccc(Cl)cc2c(N[C@@H]2CN3CCC2CC3)c1-c1nc2ccccc2[nH]1
active: Potency [1] 3320 nM | Potency [2] 2350 nM | Potency [5] 59 nM | Potency [6] 83.3 nM | Potency [9] 5900 nM | Potency [12] 332 nM
inconclusive: viability (% of control) [3] 2.53% [cytotoxic]
